Consider 39 molecules from the supplement of paper PMC8497498.

Structures are written as SMILES. Some of the results follow. The data scatter; read single values as rough.

The test deals with primary human hepatocytes. The test can be described thus: hepatic nuclei reduction relative to DMSO (100 - % of negative control); higher = more toxic to hepatocytes. The conditions noted are these: 10 µM; assay mode: Radical Cure (treated from day 5 post-infection for 3 days), fixed day 8 post-infection.
In the case of `O=C(Nc1ccc(-c2nc3cc(NC(=O)c4ccc(Cl)cc4)ccc3[nH]2)cc1)c1ccc(Cl)cc1`, the hepatic nuclei reduction is -1%.

For the molecule `COc1cccc(NC(=O)Cn2c(C)c(C#N)c3ccccc32)c1`, the hepatic nuclei reduction was -4%.

Regarding `CCCc1c(C)nc2ccc(Br)cc2c1O`, the hepatic nuclei reduction was -2%.

For the molecule `O=C(Nc1ccc(F)c(-c2nc3cc(-c4ccccc4)cnc3[nH]2)c1)N1CCCC1`, the hepatic nuclei reduction was -3%.

`O=C(CN1CCOCC1)Nc1ccc2ncnc(Nc3ccc(OCc4cccc(F)c4)c(Cl)c3)c2c1`: the hepatic nuclei reduction is 4%.

For `Cc1ccc2cc(C3NC(=O)c4ccccc4N3)c(Cl)nc2c1` (centres undefined), the hepatic nuclei reduction is 8%.

As for `CCc1cc(=O)n(C)c(SC(C)C(=O)Nc2ccc(F)cc2)n1` (centres undefined), the hepatic nuclei reduction came out at 7%.

Take `CCCCOC(=O)Nc1cc2nc(C3CCCCC3)[nH]c2cc1N1CCCC1`: the hepatic nuclei reduction is -5%.

Take `CC(C)(C)CN1C(=O)C(c2ccccc2)(c2ccccc2)N=C1N`: the hepatic nuclei reduction is -6%.

For `CNC(=O)C1Cc2c([nH]c3cc(Cl)ccc23)C2(CCN(CCc3ccccc3)CC2)N1` (centres undefined), the hepatic nuclei reduction was -4%.

In the case of `CCCCOC(=O)c1ccc(Nc2cc(C)nc3ccc(OC)cc23)cc1`, the hepatic nuclei reduction is -14%.

Take `COc1cccc(-n2nnnc2S(=O)(=O)Cc2ccccc2)c1`: the hepatic nuclei reduction is -6%.

Turning to `COc1ccc(-c2cnc3cnc(-c4cccc(OC(C)C)c4)cn23)cc1`, the hepatic nuclei reduction stood at 2%.

In the case of `Cc1nc(-c2ccccn2)nc(NCCc2ccc(S(C)(=O)=O)cc2)c1Cl`, the hepatic nuclei reduction is -5%.

Turning to `Cc1ccc(Nc2nc(NCCO)c3ccccc3n2)cc1C`, the hepatic nuclei reduction was determined as 10%.

Regarding `CCc1c(C)c(=N)c2ccccc2n1C`, the hepatic nuclei reduction was 5%.

Take `COc1nc(Nc2ccc(C(C)C)cc2)nc(OC)n1`: the hepatic nuclei reduction was -3%.

Regarding `C[C@H](C(N)=O)N1CCCC[C@@H]1c1ccc(OCc2cccc(F)c2)cc1`, the hepatic nuclei reduction is -4%.

As for `CC1CC(C)CN(C(=O)c2ccc(Cl)cc2Cl)C1` (centres undefined), the hepatic nuclei reduction was -6%.

As to `Clc1ccc2c(N3CCCC3)ccnc2c1`, the hepatic nuclei reduction is -1%.

In the case of `CCc1ccc(Nc2cc(C)nc3nc(C)nn23)cc1`, the hepatic nuclei reduction worked out at 2%.

`COc1cc(-c2cc(-c3ccc(S(C)(=O)=O)cc3)cnc2N)ccc1O`: the hepatic nuclei reduction was -9%.

In the case of `CC[C@H](CO)NCCN[C@H](CC)CO`, the hepatic nuclei reduction is -7%.

With `O=C(NC1CCN(Cc2ccccc2)CC1)c1cc(C(=O)NC2CCN(Cc3ccccc3)CC2)cc(C(=O)NC2CCN(Cc3ccccc3)CC2)c1`, the hepatic nuclei reduction was -3%.

Consider `CCN(CC)CCCNc1ccnc2cc(Cl)ccc12`, for which the hepatic nuclei reduction was -4%.

Turning to `CCN1CCN(c2cc(C)c3cc(NC(=O)c4ccc(OC)c(OC)c4)ccc3n2)CC1`, the hepatic nuclei reduction was -10%.

As for `O=C1C2=C(Nc3ccccc3SC2c2ccccc2)c2ccccc21` (centres undefined), the hepatic nuclei reduction was 1%.

On to `CC(=O)N(CCN(C(=O)c1ccc(F)cc1)c1ccccc1)c1ccccc1`, for which the hepatic nuclei reduction was -3%.

Turning to `COc1ccc2nc(C)cc(Nc3cccc(O)c3)c2c1`, the hepatic nuclei reduction was -5%.

As to `NCCN(C(=O)c1ccc(Cl)cc1Cl)c1ccc(OCc2ccc(Cl)cc2)cc1`, the hepatic nuclei reduction came out at 1%.

As for `COc1cc(OC)cc(C(=O)NCC2Cc3cc(Cl)cc(-c4ccncc4)c3O2)c1` (centres undefined), the hepatic nuclei reduction is -10%.

Regarding `O=C1c2ccc3c4c(ccc(c24)C(=O)N1CCCCO)C(=O)N(CCCCO)C3=O`, the hepatic nuclei reduction turned out to be 2%.

On to `O=C(NC1CC1)c1ccc(N2CCOc3ccc(Cl)cc32)s1`, for which the hepatic nuclei reduction was -3%.

On to `CN1CCC(c2cc(-c3ccncc3)c(-c3ccc(F)cc3)[nH]2)CC1`, for which the hepatic nuclei reduction was found to be 8%.

In the case of `COc1cc(OC)cc(N2C(=O)N(Cc3ccc(C(C)(C)C)cc3)c3ccccc3S2(=O)=O)c1`, the hepatic nuclei reduction was -12%.

For the molecule `O=S(=O)(c1ccc(Cl)cc1)N1CCN(C(=S)NCc2ccco2)CC1`, the hepatic nuclei reduction turned out to be 3%.

In the case of `Cc1ccc(S(=O)(=O)N2CCN(C(=O)c3cc(-c4ccccc4)[nH]n3)CC2)cc1`, the hepatic nuclei reduction stood at 2%.

As for `CCOC(=O)c1noc(N)c1-c1ccccc1`, the hepatic nuclei reduction is -3%.

Regarding `Cn1c(=O)c2c(S(C)(=O)=O)snc2n(C)c1=O`, the hepatic nuclei reduction was found to be 11%.
